Test results: PubChem BioAssay AID1347075 (National Center for Advancing Translational Sciences (NCATS), 2019)
Out of some 400,000 compounds screened, about 5,500 (1.4%) were called active. Inconclusive results, whose numbers are uncertain, are shown with a selection of clear calls. Calls follow the shape of the dose curve; as a rule, active = well fitted cell-killing curve with a large enough effect; inconclusive = small, poorly fitted or top-dose-only effect, or effect the other way; inactive = flat fitted curve, though single readings scatter. A potency beside an inconclusive call is a rough fit, not a confirmed value.

test: qHTS assay for MDR1-selective chemotherapeutics: Primary screen using the parental adenocarcinoma cell KB-3-1; settings: KB-3-1 viability, CellTiter-Glo ATP luminescence, 72 h; activity change, negative = cytotoxic: at 46.1 µM (top of the series); also: nearly all actives have a fitted effect of over 60% in size
Outline: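 KB-3-1 cells, DMEM (no phenol red) + 10% FBS; compound by pin transfer, 72 h, 37 °C. Readout: CellTiter-Glo luminescence after 10 min. Data normalized, curve-fitted.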
% is scaled to controls: 0 for no effect and ±100 for the full control effect; potency is read from the fitted curve at half-maximal effect.

Row | Compound | Potency | activity change, negative = cytotoxic
1 | Cn1c(SCC(=O)NC2CC2)nnc1-c1ccc(Cl)cc1 | inactive | –
2 | COCCCNC(=O)CCCN1C(=O)CCn2nc(-c3cccn3C)cc21 | inactive | –
3 | CN(c1ccccc1)S(=O)(=O)c1ccc(C(=O)Nc2nccs2)cc1 | inactive | –
4 | CCc1cccc(C)c1NC(=O)CCCN1C(=O)CN(C)C1=O | inactive | –
5 | O=C(Nc1ccccc1)c1ccc(CSc2ccccn2)cc1 | inconclusive: 18.4 µM [cytotoxic, single point] | –
6 | Cc1csc2nc(-c3ccc(NS(=O)(=O)c4cccc(F)c4)cc3)cn12 | inactive | –
7 | COC(=O)C1CCN(C(=O)COc2ccc(S(=O)(=O)N3CCOCC3)cc2Cl)CC1 | inactive | –
8 | O=C(Nc1ccc(F)cc1)c1cn(-c2ccccc2)nc1-c1ccncc1 | inconclusive: 29.1 µM [cytotoxic, single point] | –
9 | Cc1ccc(-c2n[nH]c3c2C(c2ccccc2Cl)N(c2ccc(C(=O)O)cc2)C3=O)cc1 (stereo not drawn) | inactive | –
10 | CCOc1ccc(/C=C/C(O)=C2/C(=O)N(C)C3(C)CC2c2ccccc2O3)cc1OC (stereo not drawn) | active: 23.1 µM | –
11 | Cc1cc(=O)oc2cc(OC(C)C(=O)NC3(C#N)CCCCC3)ccc12 (stereo not drawn) | inactive | –
12 | COc1ccc(/C=N/Nc2ncnc3c2[nH]c2ccccc23)c(OC)c1OC | inactive | –
13 | COc1ccc(CCCC(=O)N/N=C/c2cccc(OC)c2O)cc1C | inconclusive: 20.6 µM [cytotoxic, single point] | –
14 | COc1cc2nc(N3CCN(c4cc(C)ccc4C)CC3)nc(N)c2cc1OC | inconclusive: 16.4 µM [cytotoxic, single point] | –
15 | Cc1ccc(N(CC(=O)Nc2ccc3c(c2)OCCO3)S(C)(=O)=O)cc1 | inactive | –
16 | COC(=O)c1c(-c2cccc3ccccc23)csc1NC(=O)Cc1ccc(OC)c(OC)c1 | inconclusive: 8.2 µM [cytotoxic, partial curve, poor fit] | –
17 | CCc1nc2c(OCc3ccc(C(F)(F)F)cc3)cccn2c1N(C)C(C)=O | inactive | –
18 | CC(C)c1ccc(NC(=O)c2ccc3snnc3c2)cc1 | – | inconclusive: -7.59%
19 | O=C(/C=C/c1ccccc1Cl)Nc1ccc(-c2nnc3n2CCCCC3)cc1 | inactive | –
20 | COc1cc(SC)ccc1C(=O)N1CCN(c2ccc(O)cc2)CC1 | – | inconclusive: -4.25%
21 | O=C(N/N=C/c1cccc2ccccc12)c1cccc(F)c1 | inactive | –
22 | Cc1ccc2c(c1)C1(OCCCO1)C(=O)N2CC#N | inactive | –
23 | N#CC1=C(N)S[C@@H](C(=O)c2ccc(F)cc2)[C@@H]1c1cccs1 | inconclusive: 29.1 µM [cytotoxic, single point] | –
24 | CCC(CO)NCc1ccc(Br)cc1 (stereo not drawn) | inconclusive: 13 µM [rising, partial curve] | –
25 | Cc1cccc2c(C(=O)N3CCN(c4ccccn4)CC3)cc(-c3cccc(Br)c3)nc12 | inconclusive: 29.1 µM [cytotoxic, partial curve, poor fit] | –

Row | Compound | Potency | activity change, negative = cytotoxic
26 | Cc1cccc(C)c1NC(=O)CCCSc1nnc(-c2ccc(F)cc2)n1-c1ccccc1 | active: 16.4 µM | –
27 | O=C(COC(=O)c1cnccn1)NC1CCCc2ccccc21 (stereo not drawn) | inactive | –
28 | COc1cccc(CN(C)C(=O)c2cc(S(=O)(=O)NC3CCCCC3)ccc2C)c1 | inactive | –
29 | CSc1cccc(NC(=O)CN(c2cc(C)ccc2C)S(C)(=O)=O)c1 | inconclusive: 11.6 µM [cytotoxic, partial curve, poor fit] | –
30 | Cc1cccc(-c2nc(CS(=O)CC(=O)NCc3ccc(Cl)cc3)c(C)o2)c1 (stereo not drawn) | inactive | –
31 | O=C1CN(C(=O)c2ccc(S(=O)(=O)N3CCCCC3)cc2)C(c2ccc(F)cc2)c2cc(Cl)ccc2N1 (stereo not drawn) | inconclusive: 20.6 µM [cytotoxic, single point] | –
32 | COc1ccc(C2=C(C)C(=O)N(Cc3ccc(C(=O)Nc4ccc(F)cc4C)cc3)S2(=O)=O)cc1 | active: 4.61 µM | –
33 | O=C(NCCc1ccccc1)c1ccc(CSc2nc3cccnc3n2Cc2ccccc2F)cc1 | inconclusive: 29.1 µM [cytotoxic, single point] | –
34 | CCOC(=O)Nc1nnc(Cc2ccc(Cl)c(Cl)c2)s1 | inconclusive: 25.9 µM [cytotoxic, single point] | –
35 | COc1cc(/C=C2/SC(=O)N(Cc3ccccc3Cl)C2=O)ccc1OCc1ccncc1 | inconclusive: 20.6 µM [cytotoxic, partial curve, poor fit] | –
36 | CCn1cc(C(=O)NCc2ccco2)c(=O)c2cc(S(=O)(=O)N3CCCCCC3)ccc21 | active: 20.6 µM | –
37 | COc1cc(NC(=O)c2cc(C)on2)cc(C(=O)Nc2cccc(C(F)(F)F)c2)c1 | inconclusive: 23.1 µM [cytotoxic, single point] | –
38 | O=C(CSc1nc2ccccc2[nH]1)N1c2ccccc2Sc2ccccc21 | inactive | –
39 | Cc1ccc(NCC(=O)N/N=C\c2ccc[nH]2)cc1 | inconclusive: 16.4 µM [rising, single point] | –
40 | CCOC(=O)c1c(C)oc2nc(C)nc(NCC3CCN(Cc4ccccc4C)CC3)c12 | inactive | –
41 | O=C(Nc1nnc(-c2ccco2)o1)c1ccc(Cl)cc1 | inconclusive: 29.1 µM [cytotoxic, single point] | –
42 | O=C(NNc1ccccc1)C(=O)NNS(=O)(=O)c1ccc([N+](=O)[O-])cc1 | inconclusive: 18.4 µM [cytotoxic, single point] | –
43 | COc1cc(C2=NOC(C(=O)NCc3ccc(F)cc3)C2)cc(OC)c1OC (stereo not drawn) | active: 1.46 µM | –
44 | CCOc1ccccc1Nc1nc(-c2sc(NC(=O)c3ccco3)nc2C)cs1 | inconclusive: 18.4 µM [cytotoxic, single point] | –
45 | Cc1ccc(-c2nc3c(Cl)cc(C(F)(F)F)cn3c2Cc2ccccc2C(F)(F)F)cc1 | inactive | –
46 | N#Cc1ccc(C(=O)NN2C(=O)NC3(CCCCC3)C2=O)cc1 | inconclusive: 20.6 µM [rising, single point] | –
48 | CC(C)c1ccc2c(c1)[C@H]1OCC[C@H]1[C@@H](c1cccs1)N2 | active: 6.51 µM | –
49 | CC(=O)Oc1ccc(C(=O)Nc2ccc3c(c2)OCCO3)cc1 | inconclusive: 23.1 µM [cytotoxic, single point] | –
50 | COc1cccc(-c2nn(C)c3sc(C(=O)NCc4ccc(C)o4)cc23)c1 | inconclusive: 29.1 µM [cytotoxic, single point] | –

Row | Compound | Potency | activity change, negative = cytotoxic
51 | Cc1ccc(Cc2c(-c3ccc(Cl)cc3)nc3cc(C)ccn23)cc1 | inactive | –
52 | Cc1ccc(C(C)C)c(OCc2ccc(C(=O)N/N=C/c3ccc(O)c(O)c3)cc2)c1 | inconclusive: 18.4 µM [cytotoxic, single point] | –
53 | O=C(CCN1CCCCC1)Nc1ccccc1 | inactive | –
54 | COc1ccc(-n2c(=S)[nH]c3cc(C(=O)Nc4ccc(F)cc4)ccc3c2=O)c(OC)c1 | inconclusive: 14.6 µM [cytotoxic, partial curve, poor fit] | –
55 | CCc1nnc(NC(=O)/C=C/c2ccc(C)o2)s1 | inconclusive: 29.1 µM [rising, single point] | –
56 | O=C(NC(c1ccco1)c1cc(Cl)c2cccnc2c1O)c1ccc(F)c(F)c1 (stereo not drawn) | inconclusive: 0.517 µM [cytotoxic, full curve, poor fit] | –
57 | CC(C)Nc1ccc(Nc2ccnc3cc4ccccc4cc23)cc1 | active: 16.4 µM | –
58 | COc1ccc(CCNC(=O)c2ccc(Cn3c(=O)c4ccccc4n(Cc4ccc(F)cc4Cl)c3=O)cc2)cc1OC | inconclusive: 18.4 µM [rising, partial curve, poor fit] | –
59 | C=CC(=O)N1C/C(=C/c2ccc(Cl)cc2)C(=O)/C(=C\c2ccc(Cl)cc2)C1 | inconclusive: 1.84 µM [cytotoxic, partial curve, poor fit] | –
60 | NC(c1csc(NC(=O)c2cccc(OC(F)(F)F)c2)n1)c1ccccc1Cl (stereo not drawn) | inconclusive: 20.6 µM [cytotoxic, single point] | –
61 | O=C(Nc1nc(-c2ccc3c(c2)OCO3)cs1)C1CC1 | inactive | –
62 | C[C@H]1CN=C(N(C)C)N1CC1CCC(C(C)(C)C)CC1 (stereo partly drawn) | inconclusive: 20.6 µM [cytotoxic, single point] | –
63 | CCCN1CCN(CCCNC(=O)c2ccc3c(c2)sc2nc(-c4ccc(OCC)cc4)cn23)CC1 | active: 18.4 µM | –
64 | CCOc1ccc(-c2cn3c(n2)sc2cc(C(=O)N4CCCC(C)C4)ccc23)cc1 (stereo not drawn) | inactive | –
65 | CCN(CC)c1ccc(-c2nnc(SCC(=O)Nc3ccccc3C#N)n2-c2ccccc2)cc1 | inconclusive: 29.1 µM [cytotoxic, single point] | –
66 | O=C(N/N=C/c1ccccc1)c1c(O)c2ccccc2[nH]c1=O | active: 23.1 µM | –
67 | O=C(C[n+]1cc(-c2ccc(Br)cc2)n2c1CCCCC2)c1ccccc1 | inconclusive: 29.1 µM [cytotoxic, single point] | –
68 | COc1ccc(CNC(=O)C2CC(c3cc(C(F)(F)F)cc(C(F)(F)F)c3)=NO2)cc1 (stereo not drawn) | inconclusive: 29.1 µM [cytotoxic, single point] | –
69 | COc1cccc(OC)c1C(=O)Nc1ccccc1NC(=O)c1c(OC)cccc1OC | inactive | –
70 | C#CCOc1ccc(/C=C2/C(=O)ON=C2C)cc1Cl | inactive | –
71 | COc1ccc(Nc2ncc3c(n2)CCN(Cc2cc(Br)cs2)C3)c(OC)c1 | inactive | –
72 | CCC1CCCCN1C(=S)NC(=O)c1ccc(F)c(S(=O)(=O)N2CCOCC2)c1 (stereo not drawn) | inconclusive: 14.6 µM [cytotoxic, single point] | –
73 | COCCNC(=O)C(c1ccco1)N(C(=O)Cn1nnc2ccccc21)c1ccc(C)cc1C (stereo not drawn) | inconclusive: 20.6 µM [cytotoxic, single point] | –

Three entries picked at random from the list so far, as already listed:
Row | Compound | Potency | activity change, negative = cytotoxic
53 | O=C(CCN1CCCCC1)Nc1ccccc1 | inactive | –
57 | CC(C)Nc1ccc(Nc2ccnc3cc4ccccc4cc23)cc1 | active: 16.4 µM | –
67 | O=C(C[n+]1cc(-c2ccc(Br)cc2)n2c1CCCCC2)c1ccccc1 | inconclusive: 29.1 µM [cytotoxic, single point] | –
